# Reference: PubChem BioAssay AID493014 (National Center for Advancing Translational Sciences (NCATS), 2011)
# Screen size: about 340,000 compounds; about 170 (0.05%) were called active. Calls come from the whole dose curve; as a rule, active = well fitted inhibition curve with a large enough effect in the signal ratio, with a control signal flat (not every such curve was filed as active); inconclusive = small, poorly fitted or top-dose-only effect, or effect the other way, or a change in a side signal; inactive = flat fitted curve, though single readings scatter; the % refers to the signal ratio. Inconclusive means that the source gave no clear call.
# Assay: qHTS Assay to Find Inhibitors of Chronic Active B-Cell Receptor Signaling;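 note: plate controls were basal doxycycline-induced cells for no effect and cells given 10 µM MG132 for full effect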
# Conditions: ABC-DLBCL IkBa-CBG/CBR reporter, luminescence ratio (green luciferase fused to IkBa over red control in TMD8 lymphoma cells), 4 h; activity change, negative = inhibition: at 46.1 µM (top of the series) unless noted
# Excerpt: NIH Molecular Libraries Probe Production Network [MLPCN] NIH Chemical Genomics Center [NCGC] MLPCN Grant: 1 R03 DA031086-01A1 PI Name: Dr. R. Eric Davis NCGC Assay Overview: Diffuse large B-cell lymphoma (DLBCL) is the most common category of non-Hodgkin lymphoma, with ~20,000 new cases per year in the United States. DLBCL should be regarded as a collection of different neoplasms. Microarray gene expression analysis has defined two principal types of DLBCL, named for their similarity to normal B cell stages or activation states: a germinal center B-cell (GCB) type, and an activated B-cell (ABC) type. […] Following the addition of doxycycline to induce expression of the luciferases, the green luminescence in control cultures rises only slowly because the CBG fusion partner IkappaBalpha is targeted by IKK activity for rapid degradation. In contrast, green luminescence rises rapidly in the presence of proteasome inhibitors or IKK inhibitors. The rise in red luminescence of CBR is not affected by proteasome or IKK inhibitors, and serves as normalization for cell number and nonspecific effects. […]
# NCGC Assay Protocol Summary: Cells were seeded in 1536-well plates at 5000 cells/4uL in IMDM medium containing 0.5% FBS, w/o phenol red, 1% penicillin/streptomycin. […] The plates were measured on a ViewLux plate reader for green luminescence (540/20 nm filter) and red luminescence (618/8 nm filter). […]
row,SMILES,"activity change, negative = inhibition"
1,O=C(Nc1ccc(C(=O)O)cc1)/C(=C\C=C\c1ccccc1)NC(=O)c1cccc(Br)c1,inconclusive: -4.24%
2,CC(c1ccccc1)N1C(=O)c2ccc(C(=O)Nc3ccc(Br)cc3C(=O)O)cc2C1=O (configuration not stated),inconclusive: 6.37%
